According to paper PMC9499959:
Results are given in words; binding and its absence hold for the method and conditions named. Binding seen in cells or lysates may run through a third protein. A yes stands for co-enrichment or nearness to the bait. Other partners may have been found.

Columns and labels:
[1] = target: NTAP-Dma1-5xGly-ubiquitin(7K→7R) (S. pombe | not stated) (UniProt Q10322); assay: affinity purification with mass spectrometry; tandem affinity purification (IgG Sepharose, TEV cleavage, calmodulin resin, EGTA elution) of NTAP-Dma1 variants from 8- to 10-L S. pombe cultures in NP-40 buffer; dma1Δ or mts3-1 dnt1Δ dma1Δ backgrounds; two-dimensional LC tandem MS
NTAP-Dma1ΔRF (S. pombe) = target: T1, NTAP-Dma1ΔRF (S. pombe) (UniProt Q10322); assay: as above
T1 sequence: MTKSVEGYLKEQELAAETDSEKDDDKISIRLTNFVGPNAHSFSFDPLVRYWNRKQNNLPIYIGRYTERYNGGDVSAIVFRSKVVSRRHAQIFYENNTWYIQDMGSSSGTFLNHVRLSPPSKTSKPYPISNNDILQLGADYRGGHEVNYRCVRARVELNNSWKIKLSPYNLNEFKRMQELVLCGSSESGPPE

B1: Tip1 (found in TAP-Dma1 purifications) (protein, UniProt P79065 1-461)
chain: MFPLGSVVEVITGERGFVRYAGEVENRKGVYVGLELLPEFAEFGKNRGVVDGREYFKTKNNEKTGIFVPFDKCKLASSISSSPSPKIDGTAASIGMGFPPMSPNLQSSIPRLTNVSSSSNLSMNTISSTALTPTEKILQKRIEDLLYERQNHQQQLEEVLATVDQLQSLVTNFNDQQDEVDELRERITLKEERIQQMRNEASQRRFEFKTTIECLEESSNRAIETYENRIAELEAQLEMYMSGKSEDDLLFSLQQERDYALNQVEILQERVDTLMKQKANSSTANEKLSHMESSSPTLTNASFESPKRGKGSNDLPENHPQRRQTLEFYEIEIEVLREKVEKLQALSDEKDFYISKLEKSLDRNDTTPVPSDEKLSNYAAEKENLVSRISELEHTIEQLTINNERDNERMSPAEFELETTQEVEENDSDSHDDEETWCEVCETNNHSLQECPTVFGSTDEA
- binding [1]: binds
- binding (NTAP-Dma1ΔRF (S. pombe)): binds
